Measured values as given in paper PMC8590012.
These are yes or no findings as the source states them, for the method shown. Binding seen in cells or lysates may run through a third protein. Some entries that bind do so weakly or less than the wild type. Tags and fused reporters may be left off the sequences shown.

Experiments:
[1] = molecular target: T1, GFP-tagged Pop1 (S. cerevisiae) (UniProt P41812); experiment: co-IP; yeast lysate in IP buffer (1 x PBS, 3 mM KCl, 2.5 mM MgCl2, 0.5% Triton X-100, protease inhibitors); GFP-tagged bait on GFP-Selector beads, 1 h at 4 °C, five washes; Western blot
T1 sequence: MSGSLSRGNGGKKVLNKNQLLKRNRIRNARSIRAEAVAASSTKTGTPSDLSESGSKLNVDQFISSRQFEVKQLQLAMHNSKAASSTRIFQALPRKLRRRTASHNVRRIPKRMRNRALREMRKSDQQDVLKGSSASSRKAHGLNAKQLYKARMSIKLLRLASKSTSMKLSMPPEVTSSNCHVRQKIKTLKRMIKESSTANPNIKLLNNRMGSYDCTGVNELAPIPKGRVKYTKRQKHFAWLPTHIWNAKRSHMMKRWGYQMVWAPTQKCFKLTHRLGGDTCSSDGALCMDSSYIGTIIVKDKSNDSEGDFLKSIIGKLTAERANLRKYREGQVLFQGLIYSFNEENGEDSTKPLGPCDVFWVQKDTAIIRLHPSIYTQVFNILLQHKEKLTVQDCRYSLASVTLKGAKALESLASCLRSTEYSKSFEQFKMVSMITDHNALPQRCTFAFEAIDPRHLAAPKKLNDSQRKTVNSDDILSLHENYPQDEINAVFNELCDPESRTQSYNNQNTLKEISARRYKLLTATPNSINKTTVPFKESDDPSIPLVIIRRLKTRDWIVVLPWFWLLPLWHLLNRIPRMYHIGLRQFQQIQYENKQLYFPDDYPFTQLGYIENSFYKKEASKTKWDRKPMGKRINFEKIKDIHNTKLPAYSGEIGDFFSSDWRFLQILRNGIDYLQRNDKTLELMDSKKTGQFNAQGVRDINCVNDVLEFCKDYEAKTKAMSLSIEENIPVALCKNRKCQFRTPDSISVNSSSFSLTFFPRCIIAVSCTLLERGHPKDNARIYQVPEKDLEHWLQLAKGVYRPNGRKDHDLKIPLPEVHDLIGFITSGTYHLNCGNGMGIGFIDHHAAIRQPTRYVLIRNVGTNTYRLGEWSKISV

[2] = molecular target: T2, GFP-tagged Smb1 (S. cerevisiae) (UniProt P40018); experiment: as above
T2 sequence: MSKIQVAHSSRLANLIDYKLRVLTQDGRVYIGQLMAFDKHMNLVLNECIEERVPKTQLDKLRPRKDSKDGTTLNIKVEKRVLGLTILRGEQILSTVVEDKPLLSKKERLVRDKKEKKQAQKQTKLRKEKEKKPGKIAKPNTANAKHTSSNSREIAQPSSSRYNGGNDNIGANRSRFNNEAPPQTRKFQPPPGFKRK

[3] = molecular target: T3, GFP-tagged Mtr10 (S. cerevisiae) (UniProt Q99189); experiment: as above
T3 sequence: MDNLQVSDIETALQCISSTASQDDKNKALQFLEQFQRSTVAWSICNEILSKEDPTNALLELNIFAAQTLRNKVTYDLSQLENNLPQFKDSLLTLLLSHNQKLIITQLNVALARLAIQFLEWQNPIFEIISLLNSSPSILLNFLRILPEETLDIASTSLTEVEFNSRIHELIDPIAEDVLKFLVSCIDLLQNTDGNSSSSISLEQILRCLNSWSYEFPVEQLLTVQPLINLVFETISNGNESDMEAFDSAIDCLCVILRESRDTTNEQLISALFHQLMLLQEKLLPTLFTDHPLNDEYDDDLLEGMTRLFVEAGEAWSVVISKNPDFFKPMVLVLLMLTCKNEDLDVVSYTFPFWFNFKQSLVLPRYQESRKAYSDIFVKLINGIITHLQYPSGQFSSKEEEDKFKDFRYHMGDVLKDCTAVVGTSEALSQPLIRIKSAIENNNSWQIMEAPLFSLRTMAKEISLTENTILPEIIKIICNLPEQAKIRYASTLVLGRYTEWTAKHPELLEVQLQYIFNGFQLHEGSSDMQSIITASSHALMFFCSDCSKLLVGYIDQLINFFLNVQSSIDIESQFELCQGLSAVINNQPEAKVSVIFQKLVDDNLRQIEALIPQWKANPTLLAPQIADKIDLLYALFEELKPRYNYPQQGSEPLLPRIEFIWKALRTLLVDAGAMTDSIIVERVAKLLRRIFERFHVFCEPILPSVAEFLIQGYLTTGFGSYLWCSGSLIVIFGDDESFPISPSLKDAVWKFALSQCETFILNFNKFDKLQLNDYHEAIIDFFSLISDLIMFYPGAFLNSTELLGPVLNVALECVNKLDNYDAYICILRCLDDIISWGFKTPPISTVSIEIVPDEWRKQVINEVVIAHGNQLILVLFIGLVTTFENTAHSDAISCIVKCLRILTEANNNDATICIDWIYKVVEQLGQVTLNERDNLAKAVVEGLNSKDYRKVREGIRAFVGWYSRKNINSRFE

[4] = molecular target: T4, myc-tagged Mtr10 (S. cerevisiae) (UniProt Q99189); experiment: co-IP; yeast lysate in IP buffer (1 x PBS, 3 mM KCl, 2.5 mM MgCl2, 0.5% Triton X-100, protease inhibitors); myc-tagged bait on Myc-trap beads, 1 h at 4 °C, five washes; Western blot
T4 sequence: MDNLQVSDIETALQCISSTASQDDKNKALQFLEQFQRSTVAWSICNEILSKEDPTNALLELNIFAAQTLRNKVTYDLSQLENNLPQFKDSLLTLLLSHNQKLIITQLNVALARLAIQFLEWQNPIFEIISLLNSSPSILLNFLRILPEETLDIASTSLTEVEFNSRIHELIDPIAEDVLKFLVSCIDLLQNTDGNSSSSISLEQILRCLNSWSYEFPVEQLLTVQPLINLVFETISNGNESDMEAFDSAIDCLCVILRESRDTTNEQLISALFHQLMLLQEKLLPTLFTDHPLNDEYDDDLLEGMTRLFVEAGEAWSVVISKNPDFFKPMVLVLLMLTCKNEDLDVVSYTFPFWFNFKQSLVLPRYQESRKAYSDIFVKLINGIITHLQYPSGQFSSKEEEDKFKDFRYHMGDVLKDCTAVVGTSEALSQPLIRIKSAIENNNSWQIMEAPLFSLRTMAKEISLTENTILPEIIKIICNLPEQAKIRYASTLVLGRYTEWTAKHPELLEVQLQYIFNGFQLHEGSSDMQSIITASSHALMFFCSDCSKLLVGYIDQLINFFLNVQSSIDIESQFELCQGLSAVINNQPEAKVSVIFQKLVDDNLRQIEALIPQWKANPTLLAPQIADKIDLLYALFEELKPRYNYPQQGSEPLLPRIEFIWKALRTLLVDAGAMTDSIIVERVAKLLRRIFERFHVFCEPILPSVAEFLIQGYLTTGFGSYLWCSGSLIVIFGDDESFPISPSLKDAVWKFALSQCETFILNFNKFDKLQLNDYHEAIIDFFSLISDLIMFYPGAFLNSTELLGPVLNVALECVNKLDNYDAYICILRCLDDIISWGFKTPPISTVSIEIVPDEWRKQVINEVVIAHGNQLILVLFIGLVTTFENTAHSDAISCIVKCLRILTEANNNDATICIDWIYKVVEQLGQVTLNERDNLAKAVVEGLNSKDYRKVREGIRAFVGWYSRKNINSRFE

B1: myc-tagged Mtr10 (protein, UniProt Q99189 1-972)
chain: MDNLQVSDIETALQCISSTASQDDKNKALQFLEQFQRSTVAWSICNEILSKEDPTNALLELNIFAAQTLRNKVTYDLSQLENNLPQFKDSLLTLLLSHNQKLIITQLNVALARLAIQFLEWQNPIFEIISLLNSSPSILLNFLRILPEETLDIASTSLTEVEFNSRIHELIDPIAEDVLKFLVSCIDLLQNTDGNSSSSISLEQILRCLNSWSYEFPVEQLLTVQPLINLVFETISNGNESDMEAFDSAIDCLCVILRESRDTTNEQLISALFHQLMLLQEKLLPTLFTDHPLNDEYDDDLLEGMTRLFVEAGEAWSVVISKNPDFFKPMVLVLLMLTCKNEDLDVVSYTFPFWFNFKQSLVLPRYQESRKAYSDIFVKLINGIITHLQYPSGQFSSKEEEDKFKDFRYHMGDVLKDCTAVVGTSEALSQPLIRIKSAIENNNSWQIMEAPLFSLRTMAKEISLTENTILPEIIKIICNLPEQAKIRYASTLVLGRYTEWTAKHPELLEVQLQYIFNGFQLHEGSSDMQSIITASSHALMFFCSDCSKLLVGYIDQLINFFLNVQSSIDIESQFELCQGLSAVINNQPEAKVSVIFQKLVDDNLRQIEALIPQWKANPTLLAPQIADKIDLLYALFEELKPRYNYPQQGSEPLLPRIEFIWKALRTLLVDAGAMTDSIIVERVAKLLRRIFERFHVFCEPILPSVAEFLIQGYLTTGFGSYLWCSGSLIVIFGDDESFPISPSLKDAVWKFALSQCETFILNFNKFDKLQLNDYHEAIIDFFSLISDLIMFYPGAFLNSTELLGPVLNVALECVNKLDNYDAYICILRCLDDIISWGFKTPPISTVSIEIVPDEWRKQVINEVVIAHGNQLILVLFIGLVTTFENTAHSDAISCIVKCLRILTEANNNDATICIDWIYKVVEQLGQVTLNERDNLAKAVVEGLNSKDYRKVREGIRAFVGWYSRKNINSRFE
[1]
  binding: no binding
[2]
  binding: binds

B2: myc-tagged Est1 (protein, UniProt P17214 1-699)
chain: MDNEEVNEECMRLFFKNARAHLDKHLTSRLTCDENAYITFRCFLDGIHRKSTRFLEELLLKQENMYHNNNYERINDSVIPLVLKLLWLQIHEPTLQWFEHWFHDIMRLSNRRKFRVFRIFQKKMIQFFKITHRYYYDIIEHLCAKYDMNSVISNALFAKLNLMQYTDGLSTHEKIILNTSNPLTFSIVISLQRCVINLGSTHFYKTLLNKPSNKPKSVEGFEKSIRYLNIASLYLPAVGDTYFQRAKIYLITGKFSLYFFELVRGALVRIPSKCALNNLKDFILTPDFPERRRLMKKLAILVSKDLKGEKSFFEGQIVLQFLSIVEHTLVPQSWNASRASNCWLLKEHLQMAALKYHSGNINVILENLAATMGSFDLMFTTRKSKEQKNKLKYADLSERQVFFLDLSFDFIANIIDVVIKPSWQKNMEDFRYLAIIRLLMCWIKSYRSILQYTHRHRKFCTSFALLLNDLINSPLNCSGNIYSHRPKRSYLFREDIIFREFSCINFALTDFNDDYVYDSPDMINNIIGCPTLTKVLSPKEECVLRIRSIIFSGMKFLEKNDTGVIWNASKYKFDLISPNIKIKRQIALSEISSKINVKTQQERVVSSRKVEAKRDEQQRKRAGKIAVTELEKQFANVRRTKKLSPLPEKDGVSSELVKHAASRGRKTITGPLSSDFLSYPDEAIDADEDITVQVPDTPT
[3]
  binding: no binding

B3: Yku70 (protein, UniProt P32807 1-602)
chain: MRSVTNAFGNSGELNDQVDETGYRKFDIHEGILFCIELSETMFKESSDLEYKSPLLEILESLDELMSQLVITRPGTAIGCYFYYCNREDAKEGIYELFPLRDINATFMKKLNDLLEDLSSGRISLYDYFMFQQTGSEKQVRLSVLFTFMLDTFLEEIPGQKQLSNKRVFLFTDIDKPQEAQDIDERARLRRLTIDLFDNKVNFATFFIGYADKPFDNEFYSDILQLGSHTNENTGLDSEFDGPSTKPIDAKYIKSRILRKKEVKRIMFQCPLILDEKTNFIVGVKGYTMYTHEKAGVRYKLVYEHEDIRQEAYSKRKFLNPITGEDVTGKTVKVYPYGDLDINLSDSQDQIVMEAYTQKDAFLKIIGFRSSSKSIHYFNNIDKSSFIVPDEAKYEGSIRTLASLLKILRKKDKIAILWGKLKSNSHPSLYTLSPSSVKDYNEGFYLYRVPFLDEIRKFPSLLSYDDGSEHKLDYDNMKKVTQSIMGYFNLRDGYNPSDFKNPLLQKHYKVLHDYLLQIETTFDENETPNTKKDRMMREDDSLRKLYYIRNKILESEKSEDPIIQRLNKYVKIWNMFYKKFNDDNISIKEEKKPFDKKPKFNI
[4]
  binding: no binding
